Reference: patent US5106834A, “Linear free-sulfhydryl-containing oligopeptide derivatives as antihypertensive agents” (G. D. Searle & Co., priority 1988, dated 1992)
“And” between values parts separate entries of the source, which are not always exact repeats. Identical values can stand only once. Like-named read-outs stand apart in the source and are kept apart here. Part of at least one peptide drawing is inferred or uncertain, most often the ends. Positions of bridges follow the written chain, without caps; N, C: chain ends. Non-standard residues stand in square brackets, D forms with d. Residues, ends and D or L forms follow the SMILES beside them. No end group written: not given here. Cha = N[C@@H](CC1CCCCC1)C(=O)O

Assays:
isolated rat aorta = assay: cGMP production in isolated rat aorta; type: cell-based
isolated rabbit aorta = assay: cGMP production in isolated rabbit aorta; type: cell-based
[1] = biological target: particulate guanylate cyclase; assay: Stimulation of particulate guanylate cyclase activity in rabbit lung membranes; type: biochemical; conditions: for EC50: 37° C.
rabbit aortic rings = conditions: for Relative Potencies to ANP-(103-126), Rabbit Aorta: relaxation of norepinephrine (50 nM) precontracted rings, EC50 compared with ANP-(103-126)
anesthetized rats = assay: Mean arterial pressure of anesthetized rats (depressor activity in vivo); set-up: species or system rat
[2] = tested on: vasorelaxant (VR) receptor (guanylate cyclase-linked ANP receptor); assay: Competitive binding on isolated rabbit lung membrane, VR receptor; conditions: rabbit lung membranes, 125I-ANP-(103-126); relative to standard ANP-(103-126)
[3] = tested on: nonvasorelaxant (NVR) binding sites; assay: Competitive binding on isolated rabbit lung membrane, NVR sites; conditions: rabbit lung membranes, 125I-ANP-(103-126); relative to standard ANP-(103-126)

Compound: CC[C@H](C)[C@@H]1NC(=O)[C@H](CCCNC(=N)N)NC(=O)[C@H](CC(=O)O)NC(=O)[C@H]([C@@H](C)CC)NC(=O)[C@H](CCCNC(=N)N)NC(=O)CNC(=O)CNC(=O)[C@H](Cc2ccccc2)NC(=O)[C@@H](NC(=O)[C@H](CO)NC(=O)[C@@H](N)CO)CSSC[C@@H](C(=O)N[C@@H](CC(N)=O)C(=O)N[C@@H](CO)C(=O)N[C@@H](Cc2ccccc2)C(=O)N[C@@H](CCCNC(=N)N)C(=O)N[C@@H](Cc2ccc(O)cc2)C(=O)O)NC(=O)CNC(=O)[C@H](CC(C)C)NC(=O)CNC(=O)[C@H](CO)NC(=O)[C@H](CCC(N)=O)NC(=O)[C@H](C)NC(=O)CNC1=O [ANP-(103-126), ATRIOPEPTIN III, reference compound] (H-SSCFGGRIDRIGAQSGLGCNSFRY-OH; disulfide 3-19)
- cGMP level, rat aortae, single experiments (isolated rat aorta; 20 nM ANP-(103-126), n = 2): 9.52 pMol/gww and 14.71 pMol/gww
- cGMP level, rabbit aortae, single experiments (isolated rabbit aorta; 20 nM ANP-(103-126), 30 min incubation): 10.82 pMol/gww and 7.61 pMol/gww and 13.52 pMol/gww
- cGMP level, rabbit aortae, mean (isolated rabbit aorta; 20 nM ANP-(103-126), n = 3): 10.65 pMol/gww
- EC50 [1]: 16 nM

Compound: CC[C@H](C)[C@H](NC(=O)[C@H](CCCNC(=N)N)NC(=O)[C@H](CC(=O)O)NC(=O)[C@@H](NC(=O)[C@H](CCCNC(=N)N)NC(=O)CNC(=O)CNC(=O)[C@H](Cc1ccccc1)NC(=O)[C@H](N)CS)[C@@H](C)CC)C(=O)NCC(N)=O [Peptide No. 3, (D-Cys)-Phe-Gly-Gly-Arg-Ile-Asp-Arg-Ile-GlyNH2] (H-[dC]FGGRIDRIG-NH2)
- Relative Potencies to ANP-(103-126), Rabbit Aorta (rabbit aortic rings): 0.015

Compound: CC[C@H](C)[C@H](NC(=O)[C@H](CCCNC(=N)N)NC(=O)[C@H](CC(=O)O)NC(=O)[C@@H](NC(=O)[C@H](CCCNC(=N)N)NC(=O)CNC(=O)CNC(=O)[C@H](CC1CCCCC1)NC(=O)[C@H](N)CS)[C@@H](C)CC)C(=O)NCC(N)=O [Peptide No. 5, (D-Cys)-Cha-Gly-Gly-Arg-Ile-Asp-Arg-Ile-GlyNH2] (H-[dC][Cha]GGRIDRIG-NH2)
- Relative Potencies to ANP-(103-126), Rabbit Aorta (rabbit aortic rings): 0.018

Compound: CC[C@H](C)[C@H](NC(=O)[C@H](CCCNC(=N)N)NC(=O)[C@H](CC(=O)O)NC(=O)[C@@H](NC(=O)[C@H](CCCNC(=N)N)NC(=O)CNC(=O)CNC(=O)[C@H](CC1CCCCC1)NC(=O)[C@@H](N)CS)[C@@H](C)CC)C(=O)NCC(N)=O [Peptide No. 2, Cys-Cha-Gly-Gly-Arg-Ile-Asp-Arg-Ile-GlyNH2] (H-C[Cha]GGRIDRIG-NH2)
- cGMP level, rat aortae, single experiments (isolated rat aorta; 5 uM Peptide 2, n = 2): 13.15 pMol/gww and 14.05 pMol/gww
- effect on cGMP concentration (isolated rat aorta; isolated rat aorta): able to raise the concentration of cGMP
- rise of cGMP production above control concentration (isolated rat aorta; rat aorta, 5 μM): about 45 times above control
- cGMP level, rabbit aortae, single experiments (isolated rabbit aorta; 1 uM Peptide 2, 30 min incubation): 6.59 pMol/gww and 5.66 pMol/gww and 10.37 pMol/gww
- cGMP level, rabbit aortae, mean (isolated rabbit aorta; 1 uM Peptide 2, n = 3): 7.54 pMol/gww
- effect on cGMP concentration (isolated rabbit aorta; isolated rabbit aorta): able to raise the concentration of cGMP
- vasorelaxant activity / agonism in rabbit aorta ring relaxation (rabbit aortic rings; norepinephrine precontracted rings): full agonist
- Relative Potencies to ANP-(103-126), Rabbit Aorta (rabbit aortic rings): 0.038
- Relative Potencies to ANP-(103-126), Rabbit Aorta (rabbit aortic rings; listed as Decapeptide No. 2): 0.04
- Relative Potencies to ANP-(103-126), Rabbit Aorta (rabbit aortic rings; listed as Peptide 2): about one twenty-fifth
- effect on mean arterial pressure (anesthetized rats; i.v. bolus): dose dependent effect on mean arterial pressure
- mean arterial pressure after the depressor response (anesthetized rats; i.v. bolus): return to a pressure level higher than observed prior to I.V. administration
- effect on mean arterial pressure with vasopressin (V1) antagonist treatment (anesthetized rats; i.v., with AVPX): prolongation of the decrease in mean arterial pressure
- Relative Potencies to ANP-(103-126), Binding VR [2]: 0.013
- Relative Potencies to ANP-(103-126), Binding NVR [3]: 0.36
- relative potency with respect to ANP-(103-126), guanylate cyclase stimulation [1]: 0.03
- EC50 [1]: 580 nM

Compound: CFGGRIDRIG-NH2 [Peptide No. 1, Cys-Phe-Gly-Gly-Arg-Ile-Asp-Arg-Ile-GlyNH2]
- Relative Potencies to ANP-(103-126), Binding VR [2]: 0.0012
- Relative Potencies to ANP-(103-126), Binding NVR [3]: 0.81
